Results reported in the supplement of paper PMC12819154, “High-throughput peptide-centric local stability assay extends protein–ligand identification to membrane proteins, tissues and bacteria” (Nature Structural & Molecular Biology, 2025).
Some of the results follow. Small differences around the control level are noise.

Protein sequences, listed by entry. Tags and fused reporters are not part of them. Lines headed by an entry give the natural chain unless they say otherwise; changes in a name come on top.
UniProt Q47152: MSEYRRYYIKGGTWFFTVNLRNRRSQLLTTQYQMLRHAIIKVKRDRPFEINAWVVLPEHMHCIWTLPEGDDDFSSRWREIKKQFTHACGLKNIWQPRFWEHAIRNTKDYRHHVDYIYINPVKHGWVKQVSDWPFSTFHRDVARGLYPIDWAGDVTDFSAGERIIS
UniProt P80644: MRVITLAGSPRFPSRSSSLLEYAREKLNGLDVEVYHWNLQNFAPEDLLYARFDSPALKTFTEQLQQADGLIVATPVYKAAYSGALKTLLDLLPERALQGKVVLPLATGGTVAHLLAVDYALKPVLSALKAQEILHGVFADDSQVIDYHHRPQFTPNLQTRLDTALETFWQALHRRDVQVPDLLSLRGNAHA
UniProt Q2M7X4: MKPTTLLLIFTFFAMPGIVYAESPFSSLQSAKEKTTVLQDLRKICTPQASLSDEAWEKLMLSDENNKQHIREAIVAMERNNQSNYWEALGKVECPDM

Each target was assayed with CC1(C)S[C@@H]2[C@H](NC(=O)[C@H](N)c3ccccc3)C(=O)N2[C@H]1C(=O)O [ampicillin] (assay: log2 fold change of tryptic peptide abundance, ligand vs vehicle (limited proteolysis) (log2 ratio); higher = more trypsin-susceptible (destabilized)). Settings: ligand concentration: 10 uM; sample: E. coli crude lysate.

Target	log2 fold change
UniProt Q47152 (peptide sequence: HHVDYIYINPVK, peptide start residue: 111)	0.186
UniProt P80644 (peptide sequence: VITLAGSPR, peptide start residue: 3)	0.158
UniProt Q2M7X4 (peptide sequence: EAIVAMER, peptide start residue: 72)	-0.167
